# Some of the results follow.
# By UniProt entry, the sequences of proteins in these tests, tags left out. Where a name states a change or a piece, a line headed by the entry shows the natural chain unless it says otherwise.
# UniProt Q6P4A8: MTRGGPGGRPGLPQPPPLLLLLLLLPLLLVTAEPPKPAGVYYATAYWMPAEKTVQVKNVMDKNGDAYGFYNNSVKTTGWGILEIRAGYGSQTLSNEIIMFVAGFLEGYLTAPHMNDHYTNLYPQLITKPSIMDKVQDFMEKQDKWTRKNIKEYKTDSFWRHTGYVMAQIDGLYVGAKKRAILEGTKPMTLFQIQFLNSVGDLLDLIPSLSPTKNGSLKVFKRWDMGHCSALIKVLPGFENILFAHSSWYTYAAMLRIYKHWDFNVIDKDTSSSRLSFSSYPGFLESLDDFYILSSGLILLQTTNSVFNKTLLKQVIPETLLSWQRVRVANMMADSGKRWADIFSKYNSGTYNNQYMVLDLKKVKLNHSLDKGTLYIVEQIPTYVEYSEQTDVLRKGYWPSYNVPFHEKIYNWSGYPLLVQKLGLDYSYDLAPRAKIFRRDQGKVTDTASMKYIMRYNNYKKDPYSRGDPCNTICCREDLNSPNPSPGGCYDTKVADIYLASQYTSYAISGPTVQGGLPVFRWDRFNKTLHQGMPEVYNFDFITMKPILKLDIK
# UniProt Q9BZM1: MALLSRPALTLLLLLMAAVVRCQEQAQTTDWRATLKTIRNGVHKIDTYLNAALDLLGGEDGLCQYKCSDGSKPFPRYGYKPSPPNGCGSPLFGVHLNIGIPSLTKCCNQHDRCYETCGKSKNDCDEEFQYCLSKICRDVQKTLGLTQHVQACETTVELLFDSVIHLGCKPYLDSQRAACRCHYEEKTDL
# UniProt Q9Y5Y5: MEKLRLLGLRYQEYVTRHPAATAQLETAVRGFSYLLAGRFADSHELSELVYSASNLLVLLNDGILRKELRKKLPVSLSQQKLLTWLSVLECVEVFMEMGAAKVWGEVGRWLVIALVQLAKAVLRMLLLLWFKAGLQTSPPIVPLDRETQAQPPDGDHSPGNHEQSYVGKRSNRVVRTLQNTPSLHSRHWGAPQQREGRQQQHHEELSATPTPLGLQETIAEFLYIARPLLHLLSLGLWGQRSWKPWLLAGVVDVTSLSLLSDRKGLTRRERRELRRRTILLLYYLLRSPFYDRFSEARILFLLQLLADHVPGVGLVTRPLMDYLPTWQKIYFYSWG
# UniProt O15212, whole entry, looked up: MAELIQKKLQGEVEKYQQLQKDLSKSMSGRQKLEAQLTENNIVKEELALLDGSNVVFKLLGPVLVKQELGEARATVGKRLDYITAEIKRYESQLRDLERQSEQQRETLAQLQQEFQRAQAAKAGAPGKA
# UniProt P15735: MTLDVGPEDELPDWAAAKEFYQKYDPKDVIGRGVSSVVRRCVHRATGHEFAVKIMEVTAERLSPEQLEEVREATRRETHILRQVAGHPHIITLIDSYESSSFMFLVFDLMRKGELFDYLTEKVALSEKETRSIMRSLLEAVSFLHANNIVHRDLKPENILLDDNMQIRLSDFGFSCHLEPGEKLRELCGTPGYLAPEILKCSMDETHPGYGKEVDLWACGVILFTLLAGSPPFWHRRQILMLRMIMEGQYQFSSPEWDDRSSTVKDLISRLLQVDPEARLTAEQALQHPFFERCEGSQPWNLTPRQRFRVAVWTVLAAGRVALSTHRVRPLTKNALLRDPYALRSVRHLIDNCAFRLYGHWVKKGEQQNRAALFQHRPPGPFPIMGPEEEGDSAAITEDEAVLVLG
# UniProt P30613: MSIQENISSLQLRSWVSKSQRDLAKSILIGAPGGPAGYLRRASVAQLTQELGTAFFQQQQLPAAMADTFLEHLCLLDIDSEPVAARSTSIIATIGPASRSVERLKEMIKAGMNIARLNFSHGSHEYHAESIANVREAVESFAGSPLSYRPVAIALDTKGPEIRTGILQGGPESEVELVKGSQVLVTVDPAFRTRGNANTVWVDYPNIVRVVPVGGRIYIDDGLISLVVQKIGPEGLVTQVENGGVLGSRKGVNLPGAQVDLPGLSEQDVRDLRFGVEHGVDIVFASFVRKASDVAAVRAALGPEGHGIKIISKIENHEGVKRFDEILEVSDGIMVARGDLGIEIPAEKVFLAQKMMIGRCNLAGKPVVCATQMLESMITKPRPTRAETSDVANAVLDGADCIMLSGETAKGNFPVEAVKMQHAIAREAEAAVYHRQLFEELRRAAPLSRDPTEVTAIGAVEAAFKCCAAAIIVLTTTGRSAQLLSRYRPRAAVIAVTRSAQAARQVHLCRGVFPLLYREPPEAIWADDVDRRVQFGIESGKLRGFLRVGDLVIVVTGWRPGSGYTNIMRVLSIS
# UniProt Q8IWS0: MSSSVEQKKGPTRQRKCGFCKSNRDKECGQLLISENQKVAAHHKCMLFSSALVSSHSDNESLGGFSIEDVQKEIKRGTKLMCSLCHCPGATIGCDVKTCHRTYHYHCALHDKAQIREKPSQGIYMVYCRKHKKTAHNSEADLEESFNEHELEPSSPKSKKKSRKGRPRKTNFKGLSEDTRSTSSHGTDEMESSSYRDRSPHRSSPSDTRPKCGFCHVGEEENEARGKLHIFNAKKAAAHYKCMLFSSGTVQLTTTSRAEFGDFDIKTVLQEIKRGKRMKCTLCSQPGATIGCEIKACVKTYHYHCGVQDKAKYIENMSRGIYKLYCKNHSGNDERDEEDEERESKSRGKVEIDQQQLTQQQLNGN
# UniProt Q01813: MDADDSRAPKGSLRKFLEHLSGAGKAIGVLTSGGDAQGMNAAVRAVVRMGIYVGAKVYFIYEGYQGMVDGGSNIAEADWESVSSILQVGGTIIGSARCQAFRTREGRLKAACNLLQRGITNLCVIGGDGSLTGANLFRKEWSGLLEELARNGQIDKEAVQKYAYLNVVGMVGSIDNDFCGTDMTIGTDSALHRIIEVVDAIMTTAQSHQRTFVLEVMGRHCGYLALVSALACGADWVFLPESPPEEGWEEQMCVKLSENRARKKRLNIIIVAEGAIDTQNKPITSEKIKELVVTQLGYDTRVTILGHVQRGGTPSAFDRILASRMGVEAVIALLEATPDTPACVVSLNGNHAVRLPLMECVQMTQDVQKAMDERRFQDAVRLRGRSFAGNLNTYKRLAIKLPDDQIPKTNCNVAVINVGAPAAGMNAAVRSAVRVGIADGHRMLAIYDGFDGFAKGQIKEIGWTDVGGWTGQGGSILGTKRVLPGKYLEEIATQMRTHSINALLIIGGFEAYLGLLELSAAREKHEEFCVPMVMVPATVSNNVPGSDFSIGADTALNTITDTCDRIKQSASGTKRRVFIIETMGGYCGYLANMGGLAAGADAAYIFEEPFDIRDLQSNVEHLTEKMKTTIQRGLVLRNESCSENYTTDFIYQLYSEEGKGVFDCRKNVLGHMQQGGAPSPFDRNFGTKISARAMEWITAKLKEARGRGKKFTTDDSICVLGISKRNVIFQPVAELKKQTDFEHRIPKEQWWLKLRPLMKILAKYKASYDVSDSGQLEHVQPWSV
# UniProt Q92576, whole entry, looked up: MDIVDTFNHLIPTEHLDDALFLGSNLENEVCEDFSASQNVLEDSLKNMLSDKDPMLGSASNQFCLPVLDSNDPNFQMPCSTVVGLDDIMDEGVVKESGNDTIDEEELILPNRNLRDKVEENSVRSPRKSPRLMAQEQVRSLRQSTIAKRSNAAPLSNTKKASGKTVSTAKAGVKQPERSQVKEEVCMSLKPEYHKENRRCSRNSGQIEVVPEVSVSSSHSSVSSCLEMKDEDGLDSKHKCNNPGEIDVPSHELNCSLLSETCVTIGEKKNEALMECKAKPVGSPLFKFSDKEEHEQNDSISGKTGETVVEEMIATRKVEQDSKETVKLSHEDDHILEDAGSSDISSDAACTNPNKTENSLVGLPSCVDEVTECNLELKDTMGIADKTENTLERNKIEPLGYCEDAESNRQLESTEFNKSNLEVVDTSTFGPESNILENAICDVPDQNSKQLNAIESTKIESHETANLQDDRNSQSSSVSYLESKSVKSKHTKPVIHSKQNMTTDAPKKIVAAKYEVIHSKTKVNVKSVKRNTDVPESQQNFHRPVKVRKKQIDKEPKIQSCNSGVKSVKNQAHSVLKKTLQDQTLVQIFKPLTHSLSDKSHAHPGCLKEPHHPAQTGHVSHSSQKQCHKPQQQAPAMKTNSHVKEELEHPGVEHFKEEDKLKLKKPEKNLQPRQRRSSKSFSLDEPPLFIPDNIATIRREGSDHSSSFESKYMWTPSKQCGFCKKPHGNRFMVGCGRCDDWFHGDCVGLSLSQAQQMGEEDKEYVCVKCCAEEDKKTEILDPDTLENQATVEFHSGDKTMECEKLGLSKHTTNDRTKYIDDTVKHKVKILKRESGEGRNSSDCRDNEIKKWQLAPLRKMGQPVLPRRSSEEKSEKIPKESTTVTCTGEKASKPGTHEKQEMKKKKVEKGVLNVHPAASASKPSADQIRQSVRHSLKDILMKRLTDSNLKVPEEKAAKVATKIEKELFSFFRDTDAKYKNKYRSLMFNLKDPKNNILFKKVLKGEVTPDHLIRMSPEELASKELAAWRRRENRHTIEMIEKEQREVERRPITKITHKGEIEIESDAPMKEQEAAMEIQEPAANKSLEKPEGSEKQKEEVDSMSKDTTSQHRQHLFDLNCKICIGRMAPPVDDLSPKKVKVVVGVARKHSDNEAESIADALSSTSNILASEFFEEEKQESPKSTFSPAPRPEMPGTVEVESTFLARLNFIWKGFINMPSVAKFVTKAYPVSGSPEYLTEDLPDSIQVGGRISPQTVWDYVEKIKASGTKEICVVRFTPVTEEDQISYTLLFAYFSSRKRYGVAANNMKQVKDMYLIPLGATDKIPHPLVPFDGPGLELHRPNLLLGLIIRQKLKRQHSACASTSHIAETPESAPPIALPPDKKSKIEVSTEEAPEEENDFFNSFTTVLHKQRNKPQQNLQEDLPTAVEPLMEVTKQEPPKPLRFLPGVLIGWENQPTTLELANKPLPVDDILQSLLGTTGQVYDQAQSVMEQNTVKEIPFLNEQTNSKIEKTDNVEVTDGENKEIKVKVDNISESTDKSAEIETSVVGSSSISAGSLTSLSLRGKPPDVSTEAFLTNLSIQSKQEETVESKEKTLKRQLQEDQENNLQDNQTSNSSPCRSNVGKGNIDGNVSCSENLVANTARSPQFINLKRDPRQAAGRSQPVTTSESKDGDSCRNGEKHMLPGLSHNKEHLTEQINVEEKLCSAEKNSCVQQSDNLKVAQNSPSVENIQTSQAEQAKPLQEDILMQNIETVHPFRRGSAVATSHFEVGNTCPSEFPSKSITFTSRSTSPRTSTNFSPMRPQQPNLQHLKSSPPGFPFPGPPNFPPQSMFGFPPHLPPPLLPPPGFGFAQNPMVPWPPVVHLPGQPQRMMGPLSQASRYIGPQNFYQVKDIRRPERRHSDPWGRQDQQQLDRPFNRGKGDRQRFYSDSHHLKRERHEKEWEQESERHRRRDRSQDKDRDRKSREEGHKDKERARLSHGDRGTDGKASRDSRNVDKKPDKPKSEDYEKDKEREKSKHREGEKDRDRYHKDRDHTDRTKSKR
# UniProt Q8NCC3: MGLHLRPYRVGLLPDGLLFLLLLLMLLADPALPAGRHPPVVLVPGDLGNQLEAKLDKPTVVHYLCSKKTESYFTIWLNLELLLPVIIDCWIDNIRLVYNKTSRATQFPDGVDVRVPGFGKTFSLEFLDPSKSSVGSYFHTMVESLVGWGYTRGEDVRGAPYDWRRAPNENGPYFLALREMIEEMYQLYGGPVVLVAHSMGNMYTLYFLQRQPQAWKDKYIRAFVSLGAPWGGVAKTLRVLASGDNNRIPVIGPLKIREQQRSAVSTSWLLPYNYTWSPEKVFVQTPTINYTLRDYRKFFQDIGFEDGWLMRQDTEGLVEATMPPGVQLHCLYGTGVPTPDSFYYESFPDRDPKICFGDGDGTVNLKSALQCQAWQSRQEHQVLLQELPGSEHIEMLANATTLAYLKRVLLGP
# UniProt Q9BRB3: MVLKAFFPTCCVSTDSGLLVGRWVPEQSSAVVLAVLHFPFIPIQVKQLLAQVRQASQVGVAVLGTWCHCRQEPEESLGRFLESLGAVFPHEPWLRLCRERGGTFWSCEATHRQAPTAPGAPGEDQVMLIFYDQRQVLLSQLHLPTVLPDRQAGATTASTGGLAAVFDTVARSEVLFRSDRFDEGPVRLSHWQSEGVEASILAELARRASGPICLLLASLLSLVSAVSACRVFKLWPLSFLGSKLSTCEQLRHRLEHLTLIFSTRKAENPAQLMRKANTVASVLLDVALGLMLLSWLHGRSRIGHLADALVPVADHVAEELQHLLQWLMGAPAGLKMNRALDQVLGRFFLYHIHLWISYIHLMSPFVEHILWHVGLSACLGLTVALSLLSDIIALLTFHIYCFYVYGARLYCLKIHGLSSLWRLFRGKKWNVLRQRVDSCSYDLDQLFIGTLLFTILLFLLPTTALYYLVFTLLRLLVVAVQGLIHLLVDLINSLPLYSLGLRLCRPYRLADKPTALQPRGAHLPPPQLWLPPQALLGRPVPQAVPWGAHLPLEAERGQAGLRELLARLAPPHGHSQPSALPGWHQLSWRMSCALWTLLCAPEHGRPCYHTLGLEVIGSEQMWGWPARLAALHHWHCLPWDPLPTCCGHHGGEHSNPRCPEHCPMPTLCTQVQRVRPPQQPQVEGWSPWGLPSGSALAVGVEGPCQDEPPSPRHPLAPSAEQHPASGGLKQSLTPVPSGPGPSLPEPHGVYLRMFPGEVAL
# Key:
# Assay in all cases: log2 fold change, soluble protein after heating vs DMSO (PISA); higher = thermal stabilisation; K562 cells, 10 uM, 30 min; active = over 0.2 and 3.5 SD of the protein, either way, in both replicates (recomputed)
# [1] = compound: CC[C@@H]1C(=O)N(C)c2cnc(Nc3ccc(C(=O)NC4CCN(C)CC4)cc3OC)nc2N1C1CCCC1
# Procedure, shortened: (§1)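 K562 cells at 2×10^6 cells/mL were given 10 μM compound for 30 min. Aliquots then went through 3 min of heating across 48°C-58°C, were pooled, and were extracted in PBS with 0.5% NP-40 at 4°C, and the supernatant after 21,000xg for 90 min was quantified by TMTpro 16plex LC-MS/MS with channel sums equalised. Thermal stability relative to control samples, from duplicates, is given as log2 fold change.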
# [2] = compound: CC[C@@H]1C(=O)N(C)c2cnc(Nc3ccc(C(=O)N[C@H]4CC[C@H](N5CCN(CC6CC6)CC5)CC4)cc3OC)nc2N1C(C)C [volasertib]
# Procedure, shortened: as §1
# [3] = compound: CC[C@H](C)N1C=C(C2=C(C=C(C=C21)C3=CN=C(C=C3)N4CCNCC4)C(=O)NCC5=C(C=C(NC5=O)C)C)C
# Procedure, shortened: as §1
# [4] = compound: CC[C@H](C)[C@@H](C(=O)N[C@@H]([C@@H](C)O)C(=O)N[C@@H](CC(C)C)C(=O)[C@]1(CO1)C)NC(=O)[C@H]([C@@H](C)CC)N(C)C(=O)C [epoxomicin]
# Procedure, shortened: as §1
# [5] = compound: CCn1cc(-c2ccnc3[nH]c(-c4cccc(CN(C)C)c4)cc23)c(-c2ccc(NC(=O)N(C)C)cc2)n1
# Procedure, shortened: as §1
# [6] = compound: CN(C)CC(=O)Nc1ccc2[nH]c(=O)c3ccccc3c2c1
# Procedure, shortened: as §1
# [7] = compound: CN1C2=C(C3=C1C(=O)N(N=C3)CC4=CC(=CC=C4)N)SC(=C2)S(=O)C
# Procedure, shortened: as §1
# [8] = compound: CN1CCC(CNc2ccc3ncc(-c4cccc(OC(F)(F)F)c4)n3n2)CC1
# Procedure, shortened: as §1
# [9] = compound: CCn1c(C(=O)N(C2CC2)C2CC2)cc2c3c(ncn3C)c(Nc3cc(C)n(C)n3)nc21
# Procedure, shortened: as §1
# [10] = compound: CN(CCOC1=CC=C(C=C1)C[C@H]2C(=O)NC(=O)S2)C3=CC=CC=N3 (racemic) [rosiglitazone]
# Procedure, shortened: as §1
Target,log2 fold change [1],log2 fold change [2],log2 fold change [3],log2 fold change [4],log2 fold change [5],log2 fold change [6],log2 fold change [7],log2 fold change [8],log2 fold change [9],log2 fold change [10]
PLBD1 (UniProt Q6P4A8),inactive: -0.063,inactive: -0.076,inactive: -0.022,inactive: -0.016,inactive: -0.028,inactive: 0.088,inactive: -0.01,active: -0.352,,
PGGHG (UniProt Q32M88),inactive: 0.012,inactive: 0.098,inactive: 0.051,inactive: 0.011,inactive: -0.025,inactive: 0.069,inactive: -0.025,inactive: -0.096,,
PLA2G12A (UniProt Q9BZM1),inactive: -0.081,inactive: -0.191,inactive: 0.111,inactive: -0.122,inactive: -0.056,,inactive: 0.046,inactive: -0.122,inactive: -0.028,inactive: 0.169
PEX16 isoform 2 (UniProt Q9Y5Y5),inactive: -0.065,inactive: -0.138,inactive: -0.013,inactive: -0.024,inactive: 0.033,inactive: 0.013,inactive: -0.127,inactive: -0.124,,
PIP4P1 isoform 2 (UniProt Q86T03),inactive: -0.058,inactive: 0.112,inactive: -0.003,inactive: 0.008,inactive: -0.074,inactive: -0.012,inactive: 0.076,inactive: -0.262,,
PIGS (UniProt Q96S52),inactive: -0.02,inactive: -0.122,inactive: -0.015,inactive: -0.033,inactive: 0.017,inactive: -0.018,inactive: -0.06,inactive: 0.055,inactive: 0.02,inactive: 0.007
PFDN6 (UniProt O15212),inactive: 0.062,inactive: 0.046,inactive: -0.014,inactive: 0.016,inactive: 0.016,inactive: 0.02,inactive: 0.006,inactive: -0.005,inactive: 0.02,inactive: 0.006
PLD3 (UniProt Q8IV08),active: -0.369,active: -0.437,inactive: -0.038,inactive: 0.041,inactive: 0.035,inactive: 0.014,inactive: -0.027,active: -0.488,,
PHKG2 (UniProt P15735),inactive: -0.155,inactive: -0.195,inactive: 0.054,inactive: -0.004,inactive: 0.043,inactive: -0.002,inactive: -0.027,inactive: -0.156,,
PFDN2 (UniProt Q9UHV9),inactive: 0.057,inactive: 0.073,inactive: -0.044,inactive: -0.005,inactive: 0.02,inactive: -0.008,inactive: -0.017,inactive: 0.013,inactive: 0.05,inactive: 0.011
PI4K2A (UniProt Q9BTU6),inactive: -0.075,inactive: -0.081,inactive: 0.009,inactive: 0.027,inactive: -0.023,inactive: -0.014,inactive: 0.009,inactive: -0.146,,
PFKL isoform 2 (UniProt P17858),inactive: 0.036,inactive: -0.015,inactive: -0.002,inactive: -0.012,inactive: 0,inactive: -0.01,inactive: -0.089,inactive: -0.047,inactive: 0.029,inactive: 0.007
PKLR (UniProt P30613),inactive: 0.014,inactive: -0.007,inactive: -0.032,inactive: 0.013,inactive: -0.007,inactive: -0.012,,inactive: -0.069,inactive: -0.011,inactive: 0.019
PHF6 (UniProt Q8IWS0),inactive: 0.095,inactive: 0.068,inactive: 0.058,inactive: -0.282,inactive: 0.176,inactive: -0.063,inactive: 0.295,inactive: 0.236,inactive: -0.003,inactive: -0.085
PFKP (UniProt Q01813),inactive: -0.018,inactive: 0.038,inactive: -0.026,inactive: 0.004,inactive: -0.026,inactive: 0.015,inactive: -0.099,inactive: -0.008,inactive: -0.016,inactive: 0.006
PGLS (UniProt O95336),inactive: 0.023,inactive: -0.025,inactive: -0.06,inactive: 0.366,inactive: 0.031,inactive: 0.186,inactive: -0.048,inactive: 0.127,inactive: -0.022,inactive: -0.01
PIP5K1A (UniProt Q99755),inactive: 0.063,inactive: 0.283,inactive: 0.044,inactive: -0.024,inactive: 0.03,inactive: -0.159,inactive: 0.154,inactive: -0.233,,inactive: -0.045
PHF3 (UniProt Q92576),inactive: 0.246,inactive: 0.193,inactive: 0.062,inactive: -0.061,inactive: 0.057,inactive: -0.057,inactive: 0.218,inactive: 0.098,inactive: -0.007,inactive: -0.134
PI4KB (UniProt Q9UBF8),inactive: 0.013,inactive: -0.024,inactive: 0.051,inactive: 0.061,inactive: 0.001,inactive: 0.028,inactive: -0.063,inactive: -0.081,inactive: 0.005,inactive: -0.014
PIGH (UniProt Q14442),inactive: 0.06,inactive: -0.008,,inactive: -0.128,inactive: -0.038,inactive: 0.013,inactive: 0.115,inactive: 0.051,,
PIKFYVE (UniProt Q9Y2I7),inactive: -0.182,active: -0.499,inactive: 0.103,inactive: -0.031,inactive: -0.032,inactive: 0.032,inactive: -0.05,inactive: -0.239,,
PLA2G15 (UniProt Q8NCC3),inactive: -0.084,inactive: -0.166,inactive: 0.026,inactive: 0.01,inactive: 0.005,inactive: 0.006,inactive: 0.043,inactive: -0.076,,
PGK2 (UniProt P07205),inactive: 0.054,inactive: 0.123,inactive: -0.028,inactive: -0.037,inactive: 0.123,inactive: -0.112,inactive: -0.059,inactive: 0.06,,
PLCB3 (UniProt Q01970),inactive: -0.05,inactive: -0.037,inactive: 0.044,inactive: 0.009,inactive: -0.08,inactive: 0.02,inactive: -0.009,active: -0.246,,
PKP3 isoform 2 (UniProt Q9Y446),inactive: 0.199,inactive: -0.238,,inactive: -0.014,inactive: 0.04,inactive: 0.072,inactive: 0.288,inactive: -0.077,,inactive: 0.06
PIGB (UniProt Q92521),inactive: -0.229,inactive: 0.013,,inactive: 0.028,inactive: 0.058,,inactive: -0.175,inactive: -0.043,inactive: 0.007,
PGGT1B (UniProt P53609),inactive: 0.056,inactive: 0.098,inactive: 0.004,inactive: -0.011,inactive: -0.026,inactive: -0.009,inactive: -0.101,inactive: -0.008,,
PIGQ (UniProt Q9BRB3),inactive: -0.106,,inactive: -0.077,inactive: -0.265,inactive: -0.069,inactive: 0.064,inactive: 0.216,inactive: 0.034,inactive: 0.203,inactive: 0.082

# Reformatted: results already given
Target | log2 fold change [1] | log2 fold change [2] | log2 fold change [3] | log2 fold change [4] | log2 fold change [5] | log2 fold change [6] | log2 fold change [7] | log2 fold change [8] | log2 fold change [9] | log2 fold change [10]
PLBD1 (UniProt Q6P4A8) | inactive: -0.063 | inactive: -0.076 | inactive: -0.022 | inactive: -0.016 | inactive: -0.028 | inactive: 0.088 | inactive: -0.01 | active: -0.352 |  | 
PI4K2A (UniProt Q9BTU6) | inactive: -0.075 | inactive: -0.081 | inactive: 0.009 | inactive: 0.027 | inactive: -0.023 | inactive: -0.014 | inactive: 0.009 | inactive: -0.146 |  | 
PHF6 (UniProt Q8IWS0) | inactive: 0.095 | inactive: 0.068 | inactive: 0.058 | inactive: -0.282 | inactive: 0.176 | inactive: -0.063 | inactive: 0.295 | inactive: 0.236 | inactive: -0.003 | inactive: -0.085
PFKP (UniProt Q01813) | inactive: -0.018 | inactive: 0.038 | inactive: -0.026 | inactive: 0.004 | inactive: -0.026 | inactive: 0.015 | inactive: -0.099 | inactive: -0.008 | inactive: -0.016 | inactive: 0.006
PIKFYVE (UniProt Q9Y2I7) | inactive: -0.182 | active: -0.499 | inactive: 0.103 | inactive: -0.031 | inactive: -0.032 | inactive: 0.032 | inactive: -0.05 | inactive: -0.239 |  | 
PGK2 (UniProt P07205) | inactive: 0.054 | inactive: 0.123 | inactive: -0.028 | inactive: -0.037 | inactive: 0.123 | inactive: -0.112 | inactive: -0.059 | inactive: 0.06 |  | 
